Results: paper PMC7665181
Results are given in words; binding and its absence hold for the method and conditions named. In cells and extracts the contact can be indirect. Some entries that bind do so weakly or less than the wild type.

By UniProt entry, the sequences of proteins in these tests, tags left out.
UniProt O00487: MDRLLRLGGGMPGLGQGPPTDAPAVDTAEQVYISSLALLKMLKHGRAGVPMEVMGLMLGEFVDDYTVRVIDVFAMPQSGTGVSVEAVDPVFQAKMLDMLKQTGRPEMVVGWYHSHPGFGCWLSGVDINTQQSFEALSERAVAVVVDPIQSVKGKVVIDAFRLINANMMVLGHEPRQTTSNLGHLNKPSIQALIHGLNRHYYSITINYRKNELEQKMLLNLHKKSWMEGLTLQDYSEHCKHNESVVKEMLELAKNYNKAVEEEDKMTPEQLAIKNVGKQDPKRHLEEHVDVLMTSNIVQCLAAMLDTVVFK
UniProt P54727: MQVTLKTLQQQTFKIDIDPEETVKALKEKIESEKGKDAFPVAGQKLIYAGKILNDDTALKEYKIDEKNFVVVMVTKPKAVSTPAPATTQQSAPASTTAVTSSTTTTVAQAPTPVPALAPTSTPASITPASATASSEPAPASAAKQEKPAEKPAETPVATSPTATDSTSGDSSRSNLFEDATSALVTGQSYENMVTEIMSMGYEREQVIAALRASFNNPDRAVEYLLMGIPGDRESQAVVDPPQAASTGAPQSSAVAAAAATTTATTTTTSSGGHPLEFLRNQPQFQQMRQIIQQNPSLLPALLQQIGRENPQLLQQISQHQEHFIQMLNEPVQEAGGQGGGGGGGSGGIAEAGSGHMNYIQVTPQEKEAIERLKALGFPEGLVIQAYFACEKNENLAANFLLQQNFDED

Biological target: FLAG-tagged siRNA-resistant wild-type PSMD14 (wtPSMD14^R) (UniProt O00487)
Assay: co-IP; FLAG-tagged PSMD14^R (wild type or JAMM-motif mutant) expressed in U2OS cells was immunoprecipitated; co-precipitated proteins detected (Supplementary Fig. 7)

binding: binds
Substance: RAD23B (from UniProt P54727 1-409)
